Experimental findings from PMC10850970, “Characterization of N-glycosylation and its functional role in SIDT1-Mediated RNA uptake” are described below.

Protein sequences, listed by entry. Tags and fused reporters are not part of them. Residues count along the entry.
UniProt Q9NXL6, 23-310: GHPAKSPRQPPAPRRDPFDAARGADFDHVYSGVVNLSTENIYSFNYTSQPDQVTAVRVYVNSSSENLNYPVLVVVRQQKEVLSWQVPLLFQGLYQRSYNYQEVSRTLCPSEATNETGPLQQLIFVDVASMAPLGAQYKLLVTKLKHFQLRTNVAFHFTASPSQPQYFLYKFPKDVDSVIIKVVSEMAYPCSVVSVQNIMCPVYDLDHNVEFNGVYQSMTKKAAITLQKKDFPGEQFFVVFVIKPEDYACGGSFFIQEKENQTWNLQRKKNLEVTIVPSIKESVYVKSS

For some assays here: A negative result means that nothing was seen under these conditions. For some assays here: The exact form of at least one protein or probe is not confirmed. For some assays here: A weaker result is weaker than the reference pair of the same experiment.

Data set [1] has as its target SIDT1 ECD-Fc, PNGase F-treated (Homo sapiens) (UniProt Q9NXL6). The data set is described as follows: EMSA. Conditions: pH 5.5, PNGase F-treated, legend says FAM-labeled RNA; EMSA: 40 mM Tris-acetate pH 5.5, 100 mM NaCl, 2.5 mM EDTA, 5% glycerol, RT 30 min, 2.5 uM RNA; recombinant protein; residues 23-310; protein details: C-terminal Fc; label: 5'-FAM. A general note: A gel shift assay detects complexes by their altered migration in electrophoresis.

Data set [2] addresses SIDT1 ECD, kifunensine-treated (Homo sapiens) (UniProt Q9NXL6). Put plainly: EMSA. Conditions: pH 5.5, kifunensine, no shift up to 20 uM; EMSA: 40 mM Tris-acetate pH 5.5, 100 mM NaCl, 2.5 mM EDTA, 5% glycerol, RT 30 min, 2.5 uM RNA; recombinant protein; residues 23-310; label: 5'-FAM.

Regarding UCGCUUGGUGCAGAUCGGGAC [FAM-ssRNA 21 nt], the binding result in data set [1] was “binds more weakly”; in data set [2], “no binding”.
